Amino acid sequences for entries named in this document (tags omitted).
UniProt Q14781: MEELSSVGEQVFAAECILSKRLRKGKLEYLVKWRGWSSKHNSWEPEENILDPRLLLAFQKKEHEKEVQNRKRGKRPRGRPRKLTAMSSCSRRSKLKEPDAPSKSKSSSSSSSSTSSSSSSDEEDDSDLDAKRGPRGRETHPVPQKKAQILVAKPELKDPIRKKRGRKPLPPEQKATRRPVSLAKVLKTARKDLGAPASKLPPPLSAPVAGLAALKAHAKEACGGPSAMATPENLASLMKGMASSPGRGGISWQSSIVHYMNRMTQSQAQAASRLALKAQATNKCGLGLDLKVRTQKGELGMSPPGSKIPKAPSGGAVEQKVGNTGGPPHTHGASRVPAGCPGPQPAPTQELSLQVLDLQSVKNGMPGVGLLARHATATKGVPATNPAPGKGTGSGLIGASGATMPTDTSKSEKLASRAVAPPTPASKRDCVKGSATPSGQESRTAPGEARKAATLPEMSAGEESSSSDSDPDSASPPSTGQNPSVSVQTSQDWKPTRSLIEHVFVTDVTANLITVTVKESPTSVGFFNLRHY

In PMC10687032, “Phosphorylation of USP27X by GSK3β maintains the stability and oncogenic functions of CBX2” (Cell Death & Disease, 2023):

Biological target: T1, USP27X stably expressed in BT549 cells (human) (UniProt A6NNY8)
T1 sequence: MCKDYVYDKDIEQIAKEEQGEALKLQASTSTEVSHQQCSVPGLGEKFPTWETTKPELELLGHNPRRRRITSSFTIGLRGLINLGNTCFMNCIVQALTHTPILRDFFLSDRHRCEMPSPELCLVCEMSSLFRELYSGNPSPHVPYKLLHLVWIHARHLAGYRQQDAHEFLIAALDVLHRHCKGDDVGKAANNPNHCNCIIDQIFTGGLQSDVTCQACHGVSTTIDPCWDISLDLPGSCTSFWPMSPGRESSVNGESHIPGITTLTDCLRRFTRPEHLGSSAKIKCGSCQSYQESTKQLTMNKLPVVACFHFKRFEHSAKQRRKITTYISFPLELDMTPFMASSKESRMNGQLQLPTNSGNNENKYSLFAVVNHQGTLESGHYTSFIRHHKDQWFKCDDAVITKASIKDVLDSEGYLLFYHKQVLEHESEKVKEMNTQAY
Test: affinity purification with mass spectrometry; immunoprecipitates from BT549 cells stably expressing USP27X, gel bands digested with trypsin and analysed by mass spectrometry

binding: binds
Substance: endogenous CBX2 (from UniProt Q14781 1-532)

Results are given in words; binding and its absence hold for the method and conditions named. Binding seen in cells or lysates may run through a third protein. A yes stands for co-enrichment or nearness to the bait. Other partners may have been found.
